Results are given in words; binding and its absence hold for the method and conditions named. In cells and extracts the contact can be indirect. Some entries that bind do so weakly or less than the wild type. Where a sequence is shown, tags or fusion partners need not be part of it.
Tests used:
[1] = molecular target: T1, BBS1 (tagged, precipitated in the test of BBS1-12 against NPHP7) (human) (UniProt Q8NFJ9); assay: co-IP; tagged human BBS family members (BBS1-12) and NPHP7 overexpressed in HEK 293T cells; the BBS protein precipitated, NPHP7 detected; no figure given for this test
T1 sequence: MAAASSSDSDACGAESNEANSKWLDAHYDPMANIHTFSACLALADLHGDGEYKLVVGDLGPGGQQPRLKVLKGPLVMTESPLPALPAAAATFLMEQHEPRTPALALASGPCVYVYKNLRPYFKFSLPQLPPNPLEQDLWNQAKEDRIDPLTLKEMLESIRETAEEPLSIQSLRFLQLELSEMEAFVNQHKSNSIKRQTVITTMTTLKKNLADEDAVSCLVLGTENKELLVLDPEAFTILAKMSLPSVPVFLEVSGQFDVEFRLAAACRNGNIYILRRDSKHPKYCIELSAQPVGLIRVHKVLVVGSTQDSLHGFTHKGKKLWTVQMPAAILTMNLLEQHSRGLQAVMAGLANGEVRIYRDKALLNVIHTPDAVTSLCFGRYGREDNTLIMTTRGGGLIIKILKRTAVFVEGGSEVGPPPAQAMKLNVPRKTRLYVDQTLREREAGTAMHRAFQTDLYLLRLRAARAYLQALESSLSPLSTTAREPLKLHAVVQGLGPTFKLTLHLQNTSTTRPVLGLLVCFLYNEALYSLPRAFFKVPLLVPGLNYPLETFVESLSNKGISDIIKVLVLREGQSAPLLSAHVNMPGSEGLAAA

[2] = molecular target: T2, Flag-tagged full-length NPHP7 (human) (UniProt Q9BZE0); assay: co-IP; Flag-tagged NPHP7 (full length or truncations) co-expressed with V5-BBS1 in HEK 293T; lysis in 20 mM Tris-HCl pH 7.5, 1% Triton-X 100, 50 mM NaCl; precipitation with anti-Flag-M2 agarose beads for 3 h; western blot with anti-V5
T2 sequence: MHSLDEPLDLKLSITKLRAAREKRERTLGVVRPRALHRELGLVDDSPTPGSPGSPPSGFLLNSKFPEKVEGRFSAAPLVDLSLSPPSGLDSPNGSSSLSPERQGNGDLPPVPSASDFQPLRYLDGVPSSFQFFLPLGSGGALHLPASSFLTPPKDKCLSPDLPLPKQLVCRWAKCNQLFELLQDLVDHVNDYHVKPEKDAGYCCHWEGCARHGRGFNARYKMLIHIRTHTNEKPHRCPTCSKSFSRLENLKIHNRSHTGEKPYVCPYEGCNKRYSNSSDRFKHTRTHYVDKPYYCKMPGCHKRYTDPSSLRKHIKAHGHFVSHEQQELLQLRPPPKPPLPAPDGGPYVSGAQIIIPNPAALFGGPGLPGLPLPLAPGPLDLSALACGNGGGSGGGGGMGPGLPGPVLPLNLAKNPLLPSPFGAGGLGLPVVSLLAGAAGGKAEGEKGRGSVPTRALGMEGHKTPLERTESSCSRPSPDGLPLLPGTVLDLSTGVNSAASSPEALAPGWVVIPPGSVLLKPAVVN

[3] = molecular target: T3, Flag-NPHP7 1-156 (human) (UniProt Q9BZE0); assay: as above
T3 sequence: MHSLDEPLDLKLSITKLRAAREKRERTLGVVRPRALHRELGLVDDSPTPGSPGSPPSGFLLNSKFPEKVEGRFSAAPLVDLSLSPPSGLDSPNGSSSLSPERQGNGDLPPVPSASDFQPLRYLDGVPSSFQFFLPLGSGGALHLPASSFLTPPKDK

B1: NPHP7 (tagged, co-precipitated in the test of BBS1-12 against NPHP7) (protein, UniProt Q9BZE0 1-524)
chain: MHSLDEPLDLKLSITKLRAAREKRERTLGVVRPRALHRELGLVDDSPTPGSPGSPPSGFLLNSKFPEKVEGRFSAAPLVDLSLSPPSGLDSPNGSSSLSPERQGNGDLPPVPSASDFQPLRYLDGVPSSFQFFLPLGSGGALHLPASSFLTPPKDKCLSPDLPLPKQLVCRWAKCNQLFELLQDLVDHVNDYHVKPEKDAGYCCHWEGCARHGRGFNARYKMLIHIRTHTNEKPHRCPTCSKSFSRLENLKIHNRSHTGEKPYVCPYEGCNKRYSNSSDRFKHTRTHYVDKPYYCKMPGCHKRYTDPSSLRKHIKAHGHFVSHEQQELLQLRPPPKPPLPAPDGGPYVSGAQIIIPNPAALFGGPGLPGLPLPLAPGPLDLSALACGNGGGSGGGGGMGPGLPGPVLPLNLAKNPLLPSPFGAGGLGLPVVSLLAGAAGGKAEGEKGRGSVPTRALGMEGHKTPLERTESSCSRPSPDGLPLLPGTVLDLSTGVNSAASSPEALAPGWVVIPPGSVLLKPAVVN
binding [1]: binds

B2: V5-tagged full-length BBS1 (protein, UniProt Q8NFJ9 1-593)
chain: MAAASSSDSDACGAESNEANSKWLDAHYDPMANIHTFSACLALADLHGDGEYKLVVGDLGPGGQQPRLKVLKGPLVMTESPLPALPAAAATFLMEQHEPRTPALALASGPCVYVYKNLRPYFKFSLPQLPPNPLEQDLWNQAKEDRIDPLTLKEMLESIRETAEEPLSIQSLRFLQLELSEMEAFVNQHKSNSIKRQTVITTMTTLKKNLADEDAVSCLVLGTENKELLVLDPEAFTILAKMSLPSVPVFLEVSGQFDVEFRLAAACRNGNIYILRRDSKHPKYCIELSAQPVGLIRVHKVLVVGSTQDSLHGFTHKGKKLWTVQMPAAILTMNLLEQHSRGLQAVMAGLANGEVRIYRDKALLNVIHTPDAVTSLCFGRYGREDNTLIMTTRGGGLIIKILKRTAVFVEGGSEVGPPPAQAMKLNVPRKTRLYVDQTLREREAGTAMHRAFQTDLYLLRLRAARAYLQALESSLSPLSTTAREPLKLHAVVQGLGPTFKLTLHLQNTSTTRPVLGLLVCFLYNEALYSLPRAFFKVPLLVPGLNYPLETFVESLSNKGISDIIKVLVLREGQSAPLLSAHVNMPGSEGLAAA
binding [2]: binds
binding [3]: binds
